Measurements taken from PubChem BioAssay AID540303 (National Center for Advancing Translational Sciences (NCATS), 2011).
Values joined by “and” are separate entries in the source; they are usually repeats but may differ in a detail not shown here. Identical values can stand only once. Out of some 330,000 compounds screened, about 1,000 (0.3%) were called active. The inconclusive results got no clear call from the source; some entries with a clear call stand among them for comparison. The call rests on the fitted dose curve; in most records, active means well fitted inhibition curve with a large enough effect; inconclusive means small, poorly fitted or top-dose-only effect; inactive means no such curve, though single readings can be large or run the other way; tested in mouse RAW 264.7 cells. Potencies of inconclusive entries are doubtful fits and often do not repeat.

Test: qHTS for Inhibitors of Cell Surface uPA Generation; further: nearly all actives have a fitted effect of over 55% in size
Conditions: cell surface uPA generation assay; series mostly up to 38.3 µM
Method in brief: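 Murine RAW 264.7 cells are treated for 24 h with compound up to 38.3 uM final. Cell ATP, measured by ATP-Lite, remains high if blocking the uPA cascade prevents LF from reaching the cytoplasm.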
Potency means the concentration at half of the fitted maximal effect.

Structure (SMILES) | Potency
Cc1cccc(C(=O)Nc2ccc3ccccc3c2)c1 | inconclusive: 31.6 µM [inhibitor, partial curve, poor fit]
Cc1cc(C(=O)NCCN2CCN(c3cccc(Cl)c3)CC2)n(-c2ccccc2)n1 | inconclusive: 7.94 µM [inhibitor, partial curve, poor fit]
COc1ccc(-c2ccc(C#N)c(SCC(=O)NCCc3ccccc3)n2)cc1OC | inconclusive: 4.47 µM [inhibitor, partial curve, poor fit]
COC(=O)c1ccc(C)c(NS(=O)(=O)c2ccc3c(c2)OCCO3)c1 | inconclusive: 0.0141 µM [inhibitor, full curve, poor fit]
COc1cc2c(cc1OC)-c1cc(Nc3ccc(C(=O)O)cc3)nc(=O)n1CC2 | inactive
Cc1cccc(Cn2c(N(C)Cc3ccccc3)nc3c2c(=O)[nH]c(=O)n3C)c1 | inconclusive: 8.91 µM [inhibitor, partial curve, poor fit]
CCCCN(C)CC(O)Cn1cc(/C=C/C(=O)c2ccc(C)cc2)c2ccccc21 (stereo unspecified) | inactive
COc1ccc(OCC(=O)N/N=C(\C)c2cc3ccccc3o2)cc1 | inconclusive: 12.6 µM [inhibitor, partial curve, poor fit]
COc1cccc(NC(=S)N(CCN(C)C)C(C)c2ccncc2)c1 (stereo unspecified) | inconclusive: 5.62 µM [inhibitor, partial curve, poor fit]
NC(=O)c1ccsc1NC(=O)COC(=O)Cc1cccc2ccccc12 | inactive
Cc1cccc(C)c1OCCNC(=O)c1ccc2ccccc2n1 | inactive
Cc1cccc(NC(=O)CN2CCSc3ccccc32)c1 | inconclusive: 1.12 µM [inhibitor, partial curve, poor fit]
CCN(CC)c1ccc(C(=O)OCc2cc(=O)oc3cc(O)ccc23)cc1 | inactive
C=CCn1c(C)cc(C(=O)CN2C(=O)c3ccccc3C2=O)c1C | inconclusive: 5.62 µM [inhibitor, partial curve]
Cc1ccc(COC(=O)c2ccc3c(c2)C(=O)N(CCCN2CCOCC2)C3=O)cc1 | inconclusive: 5.01 µM [inhibitor, single point]
Cc1ccccc1OC1CCN(C(=O)C2CCC(=O)N(C3CCCC3)C2)CC1 (stereo unspecified) | inconclusive: 11.2 µM [inhibitor, partial curve, poor fit]
CN(C)C(=O)CCc1ccc2c3c([nH]c2c1)[C@]1(C)[C@@H](C(=O)N2CCOCC2)C[C@H](CC(=O)NCC24CC5CC(CC(C5)C2)C4)C(=O)N1CC3 | inactive
CCCCCCc1cc2cc(S(=O)(=O)c3ccc(F)c(Cl)c3)c(=O)oc2cc1O | inactive
Fc1ccc(-c2csc(Nc3ccccn3)n2)c(F)c1 | inconclusive: 7.08 µM [inhibitor, partial curve, poor fit]
Cc1ccc(S(=O)(=O)c2nnn3c2nc(N2CCOCC2)c2ccccc23)cc1C | inactive
COCCNC(=O)CSc1c2c(nc3ccc(Cl)cc13)CCCC2 | inconclusive: 14.1 µM [inhibitor, partial curve, poor fit]
COc1ccc(C(=O)N/C(=C\c2ccc(OC)c(OC)c2)C(=O)N2CCCCC2)cc1 | inconclusive: 2 µM [inhibitor, partial curve, poor fit]

Structure (SMILES) | Potency
COc1cc2nc(N3CCN(C(=O)OCc4ccccc4)[C@H](C(=O)NC(C)(C)C)C3)nc(N)c2cc1OC | inconclusive: 3.16 µM [inhibitor, partial curve]
O=C(N/N=C1\C/C(=N\NC(=O)c2ccncc2)c2ccccc21)c1ccncc1 | inconclusive: 12.6 µM [inhibitor, single point]
Cc1ccc(NC(=O)c2cc(S(=O)(=O)N(C)C)ccc2N2CCCC2)cc1F | inconclusive: 3.55 µM [inhibitor, partial curve]
COc1ccc([C@H]2CC(=O)C=C(c3cc(C=O)ccc3OC)C2)cc1 | active: 6.31 µM
O=C(c1ccc2c3c(cccc13)CC2)C1CCCN(Cc2ccccn2)C1 (stereo unspecified) | inactive
CCCc1cc(=O)[nH]c(SCC(=O)N2CCc3ccccc3C2)n1 | inconclusive: 0.316 µM [inhibitor, full curve, poor fit]
COc1cc(Cl)c(NC2=CC(=O)C(=O)c3ccccc32)c(OC)c1 | active: 3.16 µM
O=C(CSc1nc(-c2ccccc2)nc2c1Cc1ccccc1O2)Nc1ccc(C(=O)O)cc1 | inactive
COC(=O)[C@]1(Cc2ccccc2)N[C@H](CN(C)C(=O)Nc2ccc(C(F)(F)F)cc2)[C@@H]2C(=O)N(Cc3ccccc3)C(=O)[C@@H]21 | inconclusive: 12.6 µM [inhibitor, single point]
N#Cc1nc(-c2ccc(F)cc2)oc1N1CCCC1 | inactive
CC1CC(C)CN(S(=O)(=O)c2cccc(C(=O)N3CCN(c4ccc(F)cc4)CC3)c2)C1 (stereo unspecified) | inconclusive: 5.01 µM [inhibitor, partial curve, poor fit]
Cc1cc(C)n2nc(C(=O)Nc3ccc4c(c3)OCCO4)nc2n1 | inconclusive: 4.47 µM [inhibitor, partial curve, poor fit]
CCN1CCN(c2ccc(NC(=O)c3ccc4c(c3)OCCO4)cc2C)CC1 | inactive
CCN1CCN(CC(=O)Nc2cc(S(=O)(=O)N3CCCCC3)ccc2Cl)CC1 | inactive
CC1=CC(C)(C)N(S(=O)(=O)c2ccc(C)cc2)c2ccccc21 | inconclusive: 2.82 µM [inhibitor, full curve]
CCOc1ccc(S(=O)(=O)NCCC(=O)NCC2(N3CCCCC3)CCCCC2)cc1 | inconclusive: 5.01 µM [inhibitor, full curve]
O=C(Nc1cc(Cl)ccc1-n1cncn1)c1ccc([N+](=O)[O-])o1 | inconclusive: 7.08 µM [inhibitor, partial curve, poor fit]
O=C(O)CCNC(=O)/C(=C\c1ccco1)NC(=O)c1ccco1 | inactive
O=C(CSc1nc2cccnc2n1Cc1ccccc1)N1CCCC1 | inactive
O=C(CSc1ccccc1)Nc1ccccc1C(=O)N1CCCC1 | inconclusive: 28.2 µM [inhibitor, single point]
Cc1c(O)ccc(/C=N/Nc2nc(-c3cccnc3)nc3ccccc23)c1O | inconclusive: 7.08 µM [inhibitor, single point]
CC(=O)c1cccc(S(=O)(=O)N2CCn3cccc3C2C)c1 (stereo unspecified) | inactive

Structure (SMILES) | Potency
CNC(=O)c1[nH]cnc1C(=O)Nc1ccccc1 | inconclusive: 11.2 µM [inhibitor, partial curve, poor fit]
O=C(NNc1cc(N2CCOCC2)nc(N2CCOCC2)n1)c1ccc(Cl)c(Cl)c1 | inactive
CN1CCN(C(=S)c2cn(Cc3cccc(F)c3)c3ccccc23)CC1 | inconclusive: 14.1 µM [inhibitor, single point]
Cc1ccc(C)c(NC(=O)C2C3CCCC2C3c2ccccc2)c1 (stereo unspecified) | inactive
Cc1ccc2nc(N(CCN(C)C)C(=O)/C=C/c3cccs3)sc2c1 | inactive
CN(C)CCCN(C(=O)c1sc2ccccc2c1Cl)c1nc2ccc(F)cc2s1 | inactive
Cc1ccccc1N(C(=O)c1ccccn1)C(C(=O)NCc1ccccc1)c1ccncc1 (stereo unspecified) | inactive
COc1ccc(OCc2n(CC(=O)OC3CC(C)CCC3C(C)C)c3ccccc3[n+]2C)cc1 (stereo unspecified) | inconclusive: 11.2 µM [inhibitor, partial curve, poor fit]
COCCCC/C(=N\OCCN)c1ccc(C(F)(F)F)cc1 | inconclusive: 10 µM [inhibitor, partial curve, poor fit] and inconclusive: 5.62 µM [inhibitor, partial curve, poor fit] and inconclusive: 12.6 µM [inhibitor, single point]
COc1ccccc1N(/N=C1\Sc2ccccc2C1=O)C(C)=O | inconclusive: 7.08 µM [inhibitor, single point]
Cc1c(Cc2ccc3c(c2)OCO3)sc(NC(=O)C(C)(C)C)c1C#N | inconclusive: 11.2 µM [inhibitor, partial curve, poor fit]
COc1ccc(NC(=O)CSCC(=O)Nc2ccc(S(=O)(=O)N3CCOCC3)cc2)cc1 | inconclusive: 14.1 µM [inhibitor, partial curve, poor fit]
O=C(COc1ccc(Br)cc1CNCCc1ccccc1)NCc1ccccc1 | inconclusive: 28.2 µM [inhibitor, single point]
C[C@@H](NC(=O)c1nc[nH]c1C(=O)N[C@@H](CCCCNC(=O)OC(C)(C)C)C(=O)OC(C)(C)C)c1ccccc1 | inconclusive: 12.6 µM [inhibitor, single point]
CC(C)OCCCNC(=O)C1CCN(S(=O)(=O)N2CCCC2)CC1 | inactive
Cc1cc2c(NC(=O)Nc3ccc(F)cc3)cccc2nn1 | inactive
O=C(Nc1ccc2c(c1)OCCO2)NC1(C(F)(F)F)Oc2ccccc2O1 | active: 2.51 µM
CC(=O)N/C(N)=N/c1nc2cc(C)ccc2o1 | inconclusive: 7.08 µM [inhibitor, partial curve]
CSCCC(NC(=O)c1ccccc1Br)C(=O)N1CCN(C/C=C/c2ccccc2)CC1 (stereo unspecified) | inconclusive: 10 µM [inhibitor, single point]
COc1ccc(CCn2c(C3CCCCC3)nc3c(c(=O)c4ccccc4n3C)c2=O)cc1 | inconclusive: 1 µM [inhibitor, partial curve, poor fit]
C(=C\c1sc(Nc2ccccc2)n[n+]1-c1ccccc1)/c1ccccc1 | inconclusive: 10 µM [inhibitor, single point]
O=C(COC(=O)CC1c2ccccc2CCN1S(=O)(=O)c1ccc(F)cc1)Nc1ccccc1 (stereo unspecified) | inactive
